From patent US20260193309A1 (BRIGHAM AND WOMEN S HOSPITAL, published 2026)
Results are given in words; binding and its absence hold for the method and conditions named. Some binding calls cover weakened binding; strength is not graded here.

The chains behind the UniProt entries cited, without tags or fusion partners. Where a name states a change or a piece, a line headed by the entry shows the natural chain unless it says otherwise.
UniProt P13688: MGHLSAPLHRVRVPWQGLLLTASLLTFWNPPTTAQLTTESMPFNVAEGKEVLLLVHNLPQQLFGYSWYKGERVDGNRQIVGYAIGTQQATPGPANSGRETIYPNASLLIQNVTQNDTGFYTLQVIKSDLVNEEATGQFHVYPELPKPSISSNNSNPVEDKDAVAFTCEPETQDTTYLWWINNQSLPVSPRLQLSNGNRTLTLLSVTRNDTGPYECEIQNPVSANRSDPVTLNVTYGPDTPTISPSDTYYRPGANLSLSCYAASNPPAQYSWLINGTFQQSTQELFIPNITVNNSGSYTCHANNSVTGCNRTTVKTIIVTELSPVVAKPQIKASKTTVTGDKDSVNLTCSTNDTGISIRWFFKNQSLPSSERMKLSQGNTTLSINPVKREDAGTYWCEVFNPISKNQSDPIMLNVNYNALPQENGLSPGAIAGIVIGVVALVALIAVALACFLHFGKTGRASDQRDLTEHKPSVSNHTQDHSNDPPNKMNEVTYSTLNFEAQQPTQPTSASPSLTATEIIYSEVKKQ

Assays:
[1] = target: hCEACAM1 variant I91F (human) (UniProt P13688); assay: 'structure analysis', no further detail
[2] = target: hCEACAM1 variant V39F (human) (UniProt P13688); assay: 'structure analysis', no further detail

Row | binding [1] | binding [2] | Substance
1 | binds | – | hCEACAM1 variant I91F (from UniProt P13688 35-142) (receptor)
2 | – | binds | hCEACAM1 variant V39F (from UniProt P13688 35-142) (receptor)
